Data reported in paper PMC7343838.
Where a chain is given by its changes, count along the chain named. Names and notes keep the numbering of the source. Results are given in words; binding and its absence hold for the method and conditions named. In cells and extracts the contact can be indirect. Some results given as binding are weak or reduced against the parent protein; the word gives no strength. Sequences can lack the tags named with a protein. Blank lines part the entries; values can stand above or below the binder they belong to.

Chains of the proteins cited; added tags and fusions are not shown. Residues count along the entry.
UniProt O54921, residues 1-99: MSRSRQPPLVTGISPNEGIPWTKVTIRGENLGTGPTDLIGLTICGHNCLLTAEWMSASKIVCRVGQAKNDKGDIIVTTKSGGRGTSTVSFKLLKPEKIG

Biological target: GST-Sec5 (Ral-binding domain of rat Sec5, aa 1-99) (rat) (UniProt O54921)
Experiment: pull-down; GST-Sec5 (20 ug) on Glutathione Sepharose incubated with cell lysates for 25 min at 4 C; Ral lysis buffer (50 mM Tris pH 7.5, 100 mM NaCl, 4 mM MgCl2, 2 mM EGTA, 1% Triton X-100); cells serum-starved, with or without EGF (100 ng/ml); kB-Ras-proficient and -deficient cells compared; immunoblot; only the target purified

binding: binds
B1: RalA (endogenous, murine pancreatic ductal cell lines) (protein, UniProt P63321 1-206)
chain: MAANKPKGQNSLALHKVIMVGSGGVGKSALTLQFMYDEFVEDYEPTKADSYRKKVVLDGEEVQIDILDTAGQEDYAAIRDNYFRSGEGFLCVFSITEMESFAATADFREQILRVKEDENVPFLLVGNKSDLEDKRQVSVEEAKNRADQWNVNYVETSAKTRANVDKVFFDLMREIRARKMEDSKEKNGKKKRKSLAKRIRERCCIL

binding: binds
B2: flag-RalA F39L (murine, N-terminal 3x flag) (protein, UniProt P63321 1-206)
chain: B1 chain with F39L
